# From US5856127A, “Antimicrobial peptides” (The Research Foundation of State University of New York, priority 1996, dated 1999)
# Part of at least one peptide drawing is inferred or uncertain, most often the ends. Where a SMILES comes first, the peptide text is derived from it.
# System: Agrobacterium tumefaciens
# Assay: MIC against bacteria (Agrobacterium tumefaciens)
# Format: cell-based
# Conditions: wild-type strain Bo542, no visible lawn or colonies after 3 days
# Method: Dilutions of peptides, prepared in sterile deionized water, were placed (20 μl aliquots) in Corning disposable sterile polystyrene ELISA plates (96 well, high binding) which had been pretreated with bovine serum albumin by rinsing each well with 200 μl of a 1.0 mg/ml solution.
# Bacterial suspensions of A. tumefaciens, E. amylovora, and P. syringae were obtained from liquid cultures grown in Luria Broth (Atlas and Parks 1993). Cultures were grown at 25°C. on a rotary shaker (110 rpm) for 14 hr. Bacterial cell suspensions with an optical density between 0.7 and 0.85 at 600 nanometers (OD600) were used for assay inoculations. Dilutions of peptides were placed in the 96-well ELISA plates as described above. The final peptide concentrations tested were 0, 0.625, 1.25, 2.5, 5, 10, 15, 20, 25, 50, 100, and 250 μM. All tests were repeated 2 or more times. Controls without peptides were included with all tests. The MIC for bacterial cells was the lowest peptide concentration associated with no visible bacterial lawn or isolated colonies on the medium after 3 days in all the repeated tests.
compound,measurement,value
CSCC[C@H](N)C(=O)N[C@@H](C)C(=O)N[C@@H](CO)C(=O)N[C@@H](CCCNC(=N)N)C(=O)N[C@@H](C)C(=O)N[C@@H](C)C(=O)NCC(=O)N[C@@H](CC(C)C)C(=O)N[C@@H](C)C(=O)N[C@@H](C)C(=O)N[C@@H](CCCNC(=N)N)C(=O)N[C@@H](CC(C)C)C(=O)N[C@@H](C)C(=O)N[C@@H](CCCNC(=N)N)C(=O)N[C@@H](CC(C)C)C(=O)N[C@@H](C)C(=O)N[C@@H](CC(C)C)C(=O)N[C@@H](CCCNC(=N)N)C(=O)O [ESF12] (H-MASRAAGLAARLARLALR-OH),"MIC, Agrobacterium tumefaciens",50 µM
